Laboratory results published in the supplement of paper PMC10849652.
The other results are listed elsewhere or left out.

The chains behind the UniProt entries cited, without tags or fusion partners. Where a name states a change or a piece, a line headed by the entry shows the natural chain unless it says otherwise.
UniProt O43325: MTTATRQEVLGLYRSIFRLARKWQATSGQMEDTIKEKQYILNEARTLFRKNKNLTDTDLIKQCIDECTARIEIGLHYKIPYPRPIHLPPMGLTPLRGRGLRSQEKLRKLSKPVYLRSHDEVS
UniProt Q9NTJ4: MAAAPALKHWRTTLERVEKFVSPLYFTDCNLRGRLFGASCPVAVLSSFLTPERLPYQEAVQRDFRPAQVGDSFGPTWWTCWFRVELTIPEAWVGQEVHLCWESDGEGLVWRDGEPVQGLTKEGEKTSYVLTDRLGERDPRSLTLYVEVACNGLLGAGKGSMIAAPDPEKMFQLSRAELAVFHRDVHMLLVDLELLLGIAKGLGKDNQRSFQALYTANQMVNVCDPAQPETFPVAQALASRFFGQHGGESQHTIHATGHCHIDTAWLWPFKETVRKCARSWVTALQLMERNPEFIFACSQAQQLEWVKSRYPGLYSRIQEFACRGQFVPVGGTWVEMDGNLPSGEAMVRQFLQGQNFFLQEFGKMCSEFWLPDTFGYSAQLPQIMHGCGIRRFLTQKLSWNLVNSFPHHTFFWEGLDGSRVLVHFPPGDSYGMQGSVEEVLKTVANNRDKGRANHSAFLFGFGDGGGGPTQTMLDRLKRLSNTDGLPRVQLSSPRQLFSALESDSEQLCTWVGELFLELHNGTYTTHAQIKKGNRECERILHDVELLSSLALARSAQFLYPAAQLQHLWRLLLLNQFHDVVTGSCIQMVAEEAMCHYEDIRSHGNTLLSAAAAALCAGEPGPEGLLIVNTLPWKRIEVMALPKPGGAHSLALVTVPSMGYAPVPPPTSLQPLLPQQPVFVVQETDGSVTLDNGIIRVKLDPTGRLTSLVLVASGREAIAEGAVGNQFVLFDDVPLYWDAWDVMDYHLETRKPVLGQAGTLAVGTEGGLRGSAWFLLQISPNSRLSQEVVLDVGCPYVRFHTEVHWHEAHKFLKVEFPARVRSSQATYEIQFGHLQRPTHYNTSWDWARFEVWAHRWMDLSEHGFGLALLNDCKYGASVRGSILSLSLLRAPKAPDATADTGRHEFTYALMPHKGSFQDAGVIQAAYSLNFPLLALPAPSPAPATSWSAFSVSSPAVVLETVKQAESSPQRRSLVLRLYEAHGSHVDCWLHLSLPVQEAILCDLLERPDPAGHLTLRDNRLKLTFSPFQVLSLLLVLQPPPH
UniProt P62310: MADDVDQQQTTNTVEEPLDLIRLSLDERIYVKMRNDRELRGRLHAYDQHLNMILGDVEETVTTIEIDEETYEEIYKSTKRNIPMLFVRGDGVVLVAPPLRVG
UniProt Q9UNF1: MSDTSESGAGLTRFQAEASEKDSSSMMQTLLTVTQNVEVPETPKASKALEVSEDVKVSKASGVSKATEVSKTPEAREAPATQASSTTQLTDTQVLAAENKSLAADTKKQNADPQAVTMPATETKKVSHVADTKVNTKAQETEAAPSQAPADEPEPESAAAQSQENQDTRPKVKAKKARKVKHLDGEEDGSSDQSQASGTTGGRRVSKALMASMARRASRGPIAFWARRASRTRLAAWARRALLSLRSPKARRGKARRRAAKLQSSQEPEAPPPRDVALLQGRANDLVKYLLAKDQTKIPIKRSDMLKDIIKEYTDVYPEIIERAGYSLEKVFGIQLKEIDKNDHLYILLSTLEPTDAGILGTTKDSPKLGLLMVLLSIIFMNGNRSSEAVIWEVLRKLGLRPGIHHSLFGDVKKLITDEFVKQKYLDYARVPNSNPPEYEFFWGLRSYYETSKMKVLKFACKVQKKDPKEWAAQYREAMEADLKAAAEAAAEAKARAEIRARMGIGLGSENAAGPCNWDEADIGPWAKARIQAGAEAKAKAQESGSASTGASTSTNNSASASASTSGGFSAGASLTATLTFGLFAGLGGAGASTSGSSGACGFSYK
UniProt O00462: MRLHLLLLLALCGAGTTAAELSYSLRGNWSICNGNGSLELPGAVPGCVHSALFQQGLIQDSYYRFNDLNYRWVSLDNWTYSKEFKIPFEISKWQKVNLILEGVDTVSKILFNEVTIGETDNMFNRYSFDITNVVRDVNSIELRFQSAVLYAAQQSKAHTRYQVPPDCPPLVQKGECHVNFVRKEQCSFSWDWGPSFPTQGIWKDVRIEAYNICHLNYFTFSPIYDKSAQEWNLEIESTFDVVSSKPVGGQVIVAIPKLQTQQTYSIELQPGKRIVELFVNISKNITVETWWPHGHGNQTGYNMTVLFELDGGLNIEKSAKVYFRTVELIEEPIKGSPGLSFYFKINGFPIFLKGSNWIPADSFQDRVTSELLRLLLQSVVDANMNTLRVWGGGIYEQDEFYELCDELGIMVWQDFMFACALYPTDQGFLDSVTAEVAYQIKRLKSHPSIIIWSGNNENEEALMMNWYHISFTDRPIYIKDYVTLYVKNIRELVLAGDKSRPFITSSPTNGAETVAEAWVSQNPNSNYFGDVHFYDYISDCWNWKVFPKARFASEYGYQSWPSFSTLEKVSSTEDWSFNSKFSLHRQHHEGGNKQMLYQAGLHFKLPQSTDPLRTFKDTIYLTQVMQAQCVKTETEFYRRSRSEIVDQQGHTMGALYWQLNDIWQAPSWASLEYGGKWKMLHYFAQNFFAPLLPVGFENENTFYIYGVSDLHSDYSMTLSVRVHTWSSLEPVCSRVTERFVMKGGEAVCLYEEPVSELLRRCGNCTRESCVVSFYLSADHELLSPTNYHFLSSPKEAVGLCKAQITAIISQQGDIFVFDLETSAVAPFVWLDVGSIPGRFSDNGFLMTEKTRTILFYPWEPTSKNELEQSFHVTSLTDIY
UniProt P33908: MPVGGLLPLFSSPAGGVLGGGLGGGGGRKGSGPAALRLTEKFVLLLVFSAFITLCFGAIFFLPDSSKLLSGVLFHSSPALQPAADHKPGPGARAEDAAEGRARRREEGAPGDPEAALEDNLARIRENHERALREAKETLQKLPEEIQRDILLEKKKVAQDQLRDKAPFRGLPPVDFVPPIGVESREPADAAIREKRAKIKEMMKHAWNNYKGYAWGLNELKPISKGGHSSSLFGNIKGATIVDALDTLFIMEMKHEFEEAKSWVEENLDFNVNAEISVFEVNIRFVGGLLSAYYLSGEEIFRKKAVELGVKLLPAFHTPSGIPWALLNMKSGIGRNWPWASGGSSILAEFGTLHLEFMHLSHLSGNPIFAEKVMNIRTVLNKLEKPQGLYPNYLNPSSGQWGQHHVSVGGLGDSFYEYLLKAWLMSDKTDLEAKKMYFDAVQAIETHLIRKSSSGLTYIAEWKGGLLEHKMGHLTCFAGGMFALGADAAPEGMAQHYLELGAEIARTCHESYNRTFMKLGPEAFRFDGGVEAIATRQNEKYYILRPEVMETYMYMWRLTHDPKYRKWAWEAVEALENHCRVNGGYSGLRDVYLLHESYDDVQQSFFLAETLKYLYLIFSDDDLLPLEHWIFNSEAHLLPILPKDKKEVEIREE
UniProt O15116: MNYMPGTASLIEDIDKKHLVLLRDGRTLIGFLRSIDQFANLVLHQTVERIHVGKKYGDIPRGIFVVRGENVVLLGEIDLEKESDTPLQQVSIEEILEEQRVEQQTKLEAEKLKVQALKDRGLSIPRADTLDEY
UniProt P78559: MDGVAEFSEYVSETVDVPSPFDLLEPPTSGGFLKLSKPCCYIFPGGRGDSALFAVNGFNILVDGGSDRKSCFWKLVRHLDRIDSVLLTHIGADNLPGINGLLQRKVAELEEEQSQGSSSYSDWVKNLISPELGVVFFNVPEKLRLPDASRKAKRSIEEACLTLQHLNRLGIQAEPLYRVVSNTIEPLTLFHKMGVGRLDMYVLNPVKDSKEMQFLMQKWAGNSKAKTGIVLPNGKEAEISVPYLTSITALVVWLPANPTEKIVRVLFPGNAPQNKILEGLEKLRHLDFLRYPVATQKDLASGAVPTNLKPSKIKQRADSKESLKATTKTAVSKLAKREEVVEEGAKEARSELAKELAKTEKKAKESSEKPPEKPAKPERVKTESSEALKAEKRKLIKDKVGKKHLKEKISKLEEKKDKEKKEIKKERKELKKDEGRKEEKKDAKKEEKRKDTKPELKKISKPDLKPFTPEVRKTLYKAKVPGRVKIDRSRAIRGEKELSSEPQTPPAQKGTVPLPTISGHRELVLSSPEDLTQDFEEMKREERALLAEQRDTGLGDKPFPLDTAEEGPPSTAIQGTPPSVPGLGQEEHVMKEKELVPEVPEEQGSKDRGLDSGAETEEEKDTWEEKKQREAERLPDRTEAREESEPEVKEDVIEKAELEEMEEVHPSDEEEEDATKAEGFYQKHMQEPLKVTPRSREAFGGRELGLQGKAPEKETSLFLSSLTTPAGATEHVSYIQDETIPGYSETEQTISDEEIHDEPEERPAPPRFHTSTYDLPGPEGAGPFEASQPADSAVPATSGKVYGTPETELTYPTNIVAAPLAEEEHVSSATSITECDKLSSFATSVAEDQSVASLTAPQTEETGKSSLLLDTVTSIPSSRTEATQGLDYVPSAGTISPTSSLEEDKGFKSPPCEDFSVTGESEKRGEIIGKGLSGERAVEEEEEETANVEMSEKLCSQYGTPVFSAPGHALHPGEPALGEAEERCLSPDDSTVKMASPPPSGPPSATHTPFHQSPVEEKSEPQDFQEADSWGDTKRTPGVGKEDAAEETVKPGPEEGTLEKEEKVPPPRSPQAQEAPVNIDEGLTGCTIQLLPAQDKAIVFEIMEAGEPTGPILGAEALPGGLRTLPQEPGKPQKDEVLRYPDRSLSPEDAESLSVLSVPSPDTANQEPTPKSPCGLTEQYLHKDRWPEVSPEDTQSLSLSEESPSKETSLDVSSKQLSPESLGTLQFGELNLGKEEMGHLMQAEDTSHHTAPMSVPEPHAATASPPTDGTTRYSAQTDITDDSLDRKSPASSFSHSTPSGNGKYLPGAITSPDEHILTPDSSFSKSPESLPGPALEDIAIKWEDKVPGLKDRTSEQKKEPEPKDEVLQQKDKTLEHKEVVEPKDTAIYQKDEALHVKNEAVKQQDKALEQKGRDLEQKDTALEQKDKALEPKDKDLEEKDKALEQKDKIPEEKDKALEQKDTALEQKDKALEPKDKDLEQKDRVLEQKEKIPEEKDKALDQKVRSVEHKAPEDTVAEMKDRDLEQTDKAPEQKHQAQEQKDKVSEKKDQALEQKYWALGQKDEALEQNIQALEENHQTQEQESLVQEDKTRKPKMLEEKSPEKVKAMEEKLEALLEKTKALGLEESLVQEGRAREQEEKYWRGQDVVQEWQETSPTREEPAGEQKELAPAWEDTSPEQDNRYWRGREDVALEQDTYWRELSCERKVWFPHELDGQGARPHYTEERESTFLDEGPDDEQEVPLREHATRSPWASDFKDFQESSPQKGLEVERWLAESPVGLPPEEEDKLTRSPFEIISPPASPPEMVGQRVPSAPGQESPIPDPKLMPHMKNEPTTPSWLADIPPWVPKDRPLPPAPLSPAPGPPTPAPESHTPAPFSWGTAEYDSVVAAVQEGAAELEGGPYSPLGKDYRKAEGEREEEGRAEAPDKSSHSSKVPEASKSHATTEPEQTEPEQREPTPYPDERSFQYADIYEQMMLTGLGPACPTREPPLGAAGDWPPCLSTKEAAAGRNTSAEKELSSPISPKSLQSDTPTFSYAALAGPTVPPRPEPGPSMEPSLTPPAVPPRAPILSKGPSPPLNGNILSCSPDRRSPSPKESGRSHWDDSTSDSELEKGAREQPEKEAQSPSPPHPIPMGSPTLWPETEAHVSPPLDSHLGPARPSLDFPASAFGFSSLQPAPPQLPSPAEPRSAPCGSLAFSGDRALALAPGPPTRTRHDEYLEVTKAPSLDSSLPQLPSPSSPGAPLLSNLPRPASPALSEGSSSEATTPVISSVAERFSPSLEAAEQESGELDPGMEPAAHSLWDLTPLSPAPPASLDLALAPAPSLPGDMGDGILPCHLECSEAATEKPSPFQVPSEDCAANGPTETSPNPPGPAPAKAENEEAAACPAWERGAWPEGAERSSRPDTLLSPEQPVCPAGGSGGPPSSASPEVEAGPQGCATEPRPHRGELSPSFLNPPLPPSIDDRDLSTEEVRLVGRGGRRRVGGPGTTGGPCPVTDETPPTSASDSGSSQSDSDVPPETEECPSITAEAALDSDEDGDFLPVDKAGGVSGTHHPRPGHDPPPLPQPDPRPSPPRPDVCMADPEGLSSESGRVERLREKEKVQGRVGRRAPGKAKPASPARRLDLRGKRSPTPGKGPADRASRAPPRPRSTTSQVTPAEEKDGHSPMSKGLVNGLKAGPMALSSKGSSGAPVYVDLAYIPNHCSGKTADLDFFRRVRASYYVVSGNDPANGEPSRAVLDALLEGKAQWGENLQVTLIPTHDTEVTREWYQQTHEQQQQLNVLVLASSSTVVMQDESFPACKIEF
UniProt P55145: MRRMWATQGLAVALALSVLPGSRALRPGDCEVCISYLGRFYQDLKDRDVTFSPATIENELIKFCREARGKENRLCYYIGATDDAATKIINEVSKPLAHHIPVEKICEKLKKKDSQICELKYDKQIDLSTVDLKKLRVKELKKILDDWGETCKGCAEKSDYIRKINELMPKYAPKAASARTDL

Legend:
Experiment in all cases: log2 fold change, soluble protein after heating vs DMSO (PISA); higher = thermal stabilisation; K562 cells, 10 uM, 30 min; active = over 0.2 and 3.5 SD of the protein, either way, in both replicates (recomputed)
saracatinib = compound: CN1CCN(CCOc2cc(OC3CCOCC3)c3c(Nc4c(Cl)ccc5c4OCO5)ncnc3c2)CC1 [saracatinib]
Method in brief: (§1)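 Quantification of soluble protein used TMTpro 16plex LC-MS/MS, with channel sums equalised. Samples were the supernatant after 21,000xg for 90 min of pooled aliquots from K562 cells (2×10^6 cells/mL) treated with 10 μM compound for 30 min, heated for 3 min over 48°C-58°C, and extracted in PBS with 0.5% NP-40 at 4°C. Values, from duplicates, describe thermal stability against control samples on a log2 fold-change scale.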

sotrastaurin = compound: CN1CCN(c2nc(C3=C(c4c[nH]c5ccccc45)C(=O)NC3=O)c3ccccc3n2)CC1 [sotrastaurin]
Method in brief: as §1

alvocidib = compound: CN1CC[C@H](c2c(O)cc(O)c3c(=O)cc(-c4ccccc4Cl)oc23)[C@H](O)C1 [alvocidib]
Method in brief: as §1

Tubastatin A = compound: CN1CCc2c(c3ccccc3n2Cc2ccc(C(=O)NO)cc2)C1 [Tubastatin A]
Method in brief: as §1

[1] = compound: CNC(=O)C1=CC=CC=C1NC2=NC(=NC=C2Cl)NC3=C(C=C(C=C3)N4CCOCC4)OC
Method in brief: as §1

defactinib = compound: CNC(=O)c1ccc(Nc2ncc(C(F)(F)F)c(NCc3nccnc3N(C)S(C)(=O)=O)n2)cc1 [defactinib]
Method in brief: as §1

rucaparib = compound: CNCc1ccc(-c2[nH]c3cc(F)cc4c3c2CCNC4=O)cc1 [rucaparib]
Method in brief: as §1

[2] = compound: CNc1nc(-c2ccc3c(N)n[nH]c3c2)cc(N2C[C@@H](C(=O)NC3CCCCC3)CC[C@H]2C)n1
Method in brief: as §1

encorafenib = compound: COC(=O)N[C@@H](C)CNc1nccc(-c2cn(C(C)C)nc2-c2cc(Cl)cc(NS(C)(=O)=O)c2F)n1 [encorafenib]
Method in brief: as §1

[3] = compound: COC(=O)[C@H](CCSC)NC(=O)C1=C(C=C(C=C1)NC[C@H](CS)N)C2=CC=CC=C2
Method in brief: as §1

Measured: log2 fold change

LYZ (UniProt P61626)
inactive: saracatinib -0.026 | sotrastaurin 0.157 | alvocidib -0.071 | Tubastatin A -0.02 | [1] 0.021 | defactinib 0.131 | rucaparib 0.122 | [2] 0.349 | encorafenib -0.156 | [3] 0.457

MAP7 isoform 7 (UniProt Q14244)
inactive: saracatinib -0.163 | sotrastaurin 0.012 | alvocidib 0.232 | Tubastatin A 0.187 | [1] 0.14 | defactinib 0.437 | rucaparib 0.255 | [2] 0.203 | encorafenib 0.029 | [3] 0.078

LYRM1 (UniProt O43325)
inactive: saracatinib 0.005 | sotrastaurin 0.047 | alvocidib -0.069 | Tubastatin A 0.031 | [1] -0.137 | defactinib -0.018 | rucaparib -0.065 | [2] -0.016 | encorafenib -0.038 | [3] -0.032

LZTFL1 (UniProt Q9NQ48)
inactive: saracatinib 0.03 | sotrastaurin 0 | alvocidib -0.069 | Tubastatin A -0.019 | [1] -0.011 | defactinib -0.058 | rucaparib -0.041 | [2] -0.008 | encorafenib 0.015 | [3] 0.023

MARS (UniProt P56192)
inactive: saracatinib -0.017 | sotrastaurin -0.024 | alvocidib 0.042 | Tubastatin A -0.011 | [1] -0.045 | defactinib 0.05 | rucaparib 0.137 | [2] 0.04 | encorafenib 0.081 | [3] -0.005

MARCHF6 (UniProt O60337)
inactive: saracatinib 0.026 | sotrastaurin -0.051 | alvocidib -0.029 | Tubastatin A -0.018 | [1] -0.007 | defactinib -0.006 | rucaparib -0.016 | [2] -0.011 | encorafenib 0.031 | [3] -0.004

LSM14A isoform 2 (UniProt Q8ND56)
inactive: saracatinib 0.016 | sotrastaurin 0.043 | alvocidib 0.042 | Tubastatin A 0.034 | [1] 0.035 | defactinib 0.043 | rucaparib 0.119 | [2] 0.112 | encorafenib -0.004 | [3] -0.007

MAN2C1 isoform 4 (UniProt Q9NTJ4)
inactive: saracatinib -0.033 | sotrastaurin 0.039 | alvocidib 0.105 | Tubastatin A 0.109 | [1] 0.04 | defactinib -0.008 | rucaparib 0.005 | [2] -0.099 | encorafenib 0.021 | [3] 0.036

MAP1S (UniProt Q66K74)
inactive: saracatinib 0.03 | sotrastaurin -0.019 | alvocidib -0.014 | Tubastatin A 0.032 | [1] -0.012 | defactinib -0.024 | rucaparib 0.103 | [2] 0.077 | encorafenib 0.084 | [3] -0.05

LZIC isoform 2 (UniProt Q8WZA0)
inactive: saracatinib 0.007 | sotrastaurin 0.043 | alvocidib -0.015 | Tubastatin A -0.015 | [1] -0.043 | defactinib -0.016 | rucaparib -0.032 | [2] -0.042 | encorafenib -0.053 | [3] -0.004

LSM3 (UniProt P62310)
inactive: saracatinib 0.036 | sotrastaurin 0.015 | alvocidib -0.004 | Tubastatin A 0.035 | [1] -0.089 | defactinib 0.007 | rucaparib 0.014 | [2] 0.017 | encorafenib -0.046 | [3] -0.01

MALSU1 (UniProt Q96EH3)
inactive: saracatinib 0.049 | sotrastaurin 0.016 | alvocidib -0.086 | Tubastatin A 0.036 | [1] -0.002 | defactinib 0.023 | rucaparib -0.01 | [2] -0.03 | encorafenib 0.026 | [3] -0.039

MAGED2 (UniProt Q9UNF1)
inactive: saracatinib -0.165 | sotrastaurin -0.215 | alvocidib 0.125 | Tubastatin A 0.053 | [1] -0.319 | defactinib -0.117 | rucaparib -0.261 | [2] -0.054 | encorafenib -0.028 | [3] -0.021

Quoted at random: 2 records from the list.
LSM3 (UniProt P62310)
inactive: saracatinib 0.036 | sotrastaurin 0.015 | alvocidib -0.004 | Tubastatin A 0.035 | [1] -0.089 | defactinib 0.007 | rucaparib 0.014 | [2] 0.017 | encorafenib -0.046 | [3] -0.01

MAP1S (UniProt Q66K74)
inactive: saracatinib 0.03 | sotrastaurin -0.019 | alvocidib -0.014 | Tubastatin A 0.032 | [1] -0.012 | defactinib -0.024 | rucaparib 0.103 | [2] 0.077 | encorafenib 0.084 | [3] -0.05

Next records.

MACC1 (UniProt Q6ZN28)
inactive: saracatinib 0.007 | sotrastaurin 0.059 | alvocidib 0.138 | Tubastatin A -0.07 | [1] -0.054 | defactinib -0.056 | rucaparib -0.023 | [2] -0.067 | encorafenib 0.085 | [3] 0.068

MANBA (UniProt O00462)
inactive: saracatinib 0.069 | sotrastaurin 0.017 | alvocidib 0.022 | Tubastatin A -0.011 | [1] -0.009 | defactinib -0.074 | rucaparib -0.045 | [2] -0.02 | encorafenib 0.207 | [3] 0.072

LYRM7 (UniProt Q5U5X0)
inactive: saracatinib -0.02 | sotrastaurin 0.029 | alvocidib -0.041 | Tubastatin A 0.019 | [1] 0.019 | defactinib -0.019 | rucaparib 0.013 | [2] -0.046 | encorafenib -0.028 | [3] -0.027

MAPK3 (UniProt P27361)
inactive: saracatinib -0.04 | sotrastaurin -0.052 | alvocidib -0.045 | Tubastatin A 0.013 | [1] 0.102 | defactinib -0.069 | rucaparib -0.031 | [2] 0 | encorafenib 0.081 | [3] -0.005

MAN1A1 (UniProt P33908)
inactive: saracatinib 0.008 | sotrastaurin 0.022 | alvocidib 0.039 | Tubastatin A -0.012 | [1] -0.005 | defactinib 0.002 | rucaparib -0.011 | [2] -0.093 | encorafenib -0.015 | [3] -0.004

MAK16 (UniProt Q9BXY0)
inactive: saracatinib -0.043 | sotrastaurin -0.157 | alvocidib 0.116 | Tubastatin A -0.075 | [1] -0.101 | defactinib -0.05 | rucaparib 0.001 | [2] -0.03 | encorafenib -0.024 | [3] 0.002

LSM1 (UniProt O15116)
inactive: saracatinib 0.018 | sotrastaurin 0.023 | alvocidib 0.026 | Tubastatin A -0.026 | [1] -0.068 | defactinib -0.004 | rucaparib -0.039 | [2] 0.018 | encorafenib -0.024 | [3] 0

MAP1A isoform 2 (UniProt P78559)
inactive: saracatinib -0.119 | sotrastaurin -0.002 | alvocidib 0.106 | Tubastatin A 0.109 | [1] -0.032 | defactinib 0.109 | rucaparib 0.106 | [2] 0.075 | encorafenib 0.078 | [3] 0.013

LYAR (UniProt Q9NX58)
inactive: saracatinib -0.068 | sotrastaurin -0.019 | alvocidib 0.454 | Tubastatin A 0.071 | [1] 0.107 | defactinib 0.767 | rucaparib 0.429 | [2] 0.065 | encorafenib 0.227 | [3] -0.067

MAN1B1 (UniProt Q9UKM7)
inactive: saracatinib -0.003 | sotrastaurin 0.043 | alvocidib -0.026 | Tubastatin A 0.013 | [1] -0.032 | defactinib -0.037 | rucaparib 0.023 | [2] -0.029 | encorafenib 0.014 | [3] -0.047

MACROD1 (UniProt Q9BQ69)
inactive: saracatinib 0.06 | sotrastaurin -0.024 | alvocidib -0.144 | Tubastatin A 0.209 | [1] 0.046 | defactinib -0.154 | rucaparib 0.108 | [2] -0.15 | encorafenib 0.064 | [3] -0.032

MANF (UniProt P55145)
inactive: saracatinib 0.015 | sotrastaurin 0.004 | alvocidib 0.006 | Tubastatin A -0.047 | [1] 0.088 | defactinib -0.022 | rucaparib -0.032 | [2] -0.018 | encorafenib -0.043 | [3] -0.005

MAGEC1 (UniProt O60732)
inactive: saracatinib -0.122 | sotrastaurin -0.195 | alvocidib -0.032 | Tubastatin A 0.011 | [1] -0.004 | defactinib 0.034 | rucaparib 0.389 | [2] 0.049 | encorafenib 0.22 | [3] -0.023

MAGEB2 (UniProt O15479)
inactive: saracatinib -0.134 | sotrastaurin -0.032 | alvocidib 0.139 | Tubastatin A -0.061 | [1] 0.101 | defactinib 0.274 | rucaparib -0.076 | [2] 0.182 | encorafenib -0.02 | [3] -0.04

LTA4H (UniProt P09960)
inactive: saracatinib 0.055 | sotrastaurin -0.012 | alvocidib -0.079 | Tubastatin A -0.023 | [1] -0.006 | defactinib -0.036 | rucaparib -0.049 | [2] -0.003 | encorafenib 0.009 | [3] 0.011

MAN2A1 (UniProt Q16706)
inactive: saracatinib 0.031 | sotrastaurin -0.004 | alvocidib -0.031 | Tubastatin A -0.025 | [1] 0.021 | defactinib -0.037 | rucaparib 0.001 | [2] -0.052 | encorafenib 0 | [3] -0.015

LTF (UniProt P02788)
inactive: saracatinib 0.555 | sotrastaurin 0.058 | alvocidib -0.035 | Tubastatin A -0.146 | [1] 0.333 | defactinib -0.063 | rucaparib -0.248 | [2] 0.051 | encorafenib 0.007 | [3] 0.154
